In patent US20140186359A1 one finds binding data, which are given here for three molecules.

Sequences of proteins named here, by UniProt entry; tags and fusion partners are left off. A change or cut given only in a name is not applied to a line headed by its entry.
UniProt Q14444: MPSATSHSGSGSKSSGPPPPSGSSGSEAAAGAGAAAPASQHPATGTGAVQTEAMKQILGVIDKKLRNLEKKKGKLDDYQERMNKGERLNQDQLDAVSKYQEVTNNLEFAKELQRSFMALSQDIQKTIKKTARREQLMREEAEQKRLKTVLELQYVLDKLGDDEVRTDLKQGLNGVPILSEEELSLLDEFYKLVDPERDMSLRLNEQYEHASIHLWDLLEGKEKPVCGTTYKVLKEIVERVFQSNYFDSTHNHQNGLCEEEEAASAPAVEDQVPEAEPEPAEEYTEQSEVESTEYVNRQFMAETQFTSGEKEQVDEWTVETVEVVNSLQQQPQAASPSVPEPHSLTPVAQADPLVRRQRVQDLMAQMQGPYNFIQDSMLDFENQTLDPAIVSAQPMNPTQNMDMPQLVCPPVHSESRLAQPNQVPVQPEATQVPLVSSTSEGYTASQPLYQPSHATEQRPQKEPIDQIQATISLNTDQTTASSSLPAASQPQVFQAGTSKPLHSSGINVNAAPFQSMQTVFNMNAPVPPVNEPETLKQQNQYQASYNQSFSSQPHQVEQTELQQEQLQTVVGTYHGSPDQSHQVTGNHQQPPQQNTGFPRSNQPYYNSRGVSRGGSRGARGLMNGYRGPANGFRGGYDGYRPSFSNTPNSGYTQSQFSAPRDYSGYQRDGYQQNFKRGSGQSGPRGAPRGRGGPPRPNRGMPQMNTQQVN

Test [1] deals with human CAPRIN-1 expressed on the surface of human cancer cells (human) (UniProt Q14444). As to the kind of experiment: flow cytometry, MDA-MB-231V cells, hybridoma supernatant. A general note: In flow cytometry, cells or beads pass a laser one at a time.
Test [2] shares this target. Briefly: flow cytometry on human cancer cell lines.

No constants are given. Whether binding was seen depends on the method and setting. Some results given as binding are weak or reduced against the parent protein; the word gives no strength.

B1: chicken monoclonal antibody #3 (antibody, V domains shown)
VH: AVTLDESGGGLQTPGGGLSLVCKGSGFTFSSFGMFWVRQAPGKGLEFVASISDNGRSTYYGSAVKGRATISRDDGQSTVRLQLNNLRAEDTGTYYCAKNAYVGRGCCFSYSIDAWGHGTEVIVS
VL: ALTQPASVSVNPGETVKITCSGGGSSSDAYGWYQQKSPGSAPVTLIYNGSNRPSHIPSRFSGSTSGSTNTLTITGVQVEDEAIYFCGSTDTSTSVGIFGAGTTLTV
For B1, the binding entry in test [1] and in test [2] was “binds” each time.

B2: chicken monoclonal antibody #1 (antibody, V domains shown)
VH: AVTLDESGGGLQTPGGALSLVCKASGFTFRSHSMFWVRQAPGKGLEYVAGIYGVGRSIRYGSAVKGRATMSRDNGQSTVRLQLNNLRAEDTATYYCAKSGYFSNSRYWDSGAYFIDAWGHGTEVIVS
VL: ALTQPASVSANPGETVEITCSGGYSNYGWYQQKSPGSAPVTVIYYNDKRPSDIPSRFSGSKSGSTATLTITGVQAEDEAVYFCGGYDSSTDAGIFGAGTTLTV
As to B2, the binding entry in test [1] and in test [2] was “binds” throughout.

B3: chicken monoclonal antibody #4 (antibody, V domains shown)
VH: AVTLDESGGGLQTPGGAVSLVCKGSGFTFSSYGMGWVRQAPGKGLEYVAAIRKDGSTNYGPAVKGRATISRDNGQSTVRLQLSNLRAEDTATYYCAKRSHTGVNAAKIDAWGRGTEVIVS
VL: ALTQPASVSANPGETVKITCSGASHNYGWFQQKSPGSAPVTVIYSNDKRPSDIPSRFSGSKSGSTATLTITGVQADDEAVYFCGGYNIYGPTFGAGTTLTV
For the molecule B3, the binding result in test [1] and in test [2] was “binds” throughout.
